From US20250282720A1, “ALKYLSULFENYL THIOCARBONATES: PRECURSORS TO HYDROPERSULFIDES POTENTLY ATTENUATE OXIDATIVE STRESS” (The Johns Hopkins University, priority 2021, published 2025)
“And” between values parts separate entries of the source, which are not always exact repeats. Equal values may be shown once.

Key:
Assay type in all cases: physicochemical
[1] = RSSH generation / decomposition in the presence of N-acetyl cysteine, UPLC-MS; conditions: 100 μM, N-acetyl cysteine 500 μM, pH 7.4 ammonium bicarbonate, 37° C.
[2] = Decomposition of precursors in the presence of thiol (NAC / N-acetyl cysteine methyl ester), HPLC
Method: Initially, the decomposition of 1a was analyzed in the presence of 5 equiv of N-acetylcysteine (NAC) in PBS (pH 7.4) by HPLC. […] To investigate the mechanism, this reaction was monitored by UPLC-MS. […] Additionally, a small amount of unsymmetrical dialkyl polysulfide (pink highlight, R^1SSnSR^2, n=0-3) is observed, likely formed via NAC reaction with symmetrical dialkyl polysulfides (Scheme 1-5, eq. 7). As expected, a new peak at 5.65 min corresponding to N-acetyl cysteine-thiocarbonate 9a also is observed, confirming thiol attack at the perthiocarbonate carbonyl carbon of 1a to release RSSH. Due to the unstable nature of RSSH under these experimental conditions, the yield of the by-product 9a was measured as an indication of RSSH yield. The observation of RSSH-derived polysulfides formation as major products led us to anticipate the efficient formation of by-product 9a. […] The lower observed yield of 9a is likely due to its further reaction with RSSH under these conditions. […]
To a solution of N-acetyl cysteine methyl ester (500 μM) in pH 7.4 phosphate buffer saline (100 mM) containing DTPA (100 μM), precursor 1a or 8 (100 μM) was added. […] At different time points, an aliquot of the reaction mixture (500 μL) was withdrawn and transferred to pre-cooled 0.1% formic acid (500 μL) and analyzed using HPLC. […]

[3] = COS release from RSSH precursors in the presence of thiols, MIMS; conditions: 50 μM, PBS pH 7.4, 37° C.
[4] = RSSH generation trapped with HPE-IAM or MMTS, UPLC-MS; conditions: pH 7.4 ammonium bicarbonate buffer, 37° C.
[5] = Kinetics of RSSH release (precursor hydrolysis) in the presence of MMTS, monitored by HPLC; conditions: precursor 100 μM, MMTS 1 mM, pH 7.4 PBS, 37° C.
Method: After confirming RSSH generation from 1a, the kinetics of RSSH release from alkylsulfenyl thiocarbonates in the presence of MMTS was analyzed by high-performance liquid chromatography (HPLC). Due to the lack of a chromophore in MMTS adduct 7, the decay of the RSSH precursor and formation of the corresponding phenol byproduct was monitored. First-order rate constants were obtained by plotting the precursor decay and phenol byproduct formation as a function of time. […] The observation of similar rate constants for both 1a decay and phenol (4a) formation indicates a rapid reaction of relased RSSH with MMTS, and that these observed rate constants indicate the RSSH release rate. Importantly, 92% of the byproduct phenol 4a is observed. In addition, the effect of pH on the kinetics of RSSH release also was examined.
The RSSH release kinetics for precursors containing a variety of para-substituted phenols were then compared. It was hoped to decrease the rate of RSSH release through the introduction of electron-donating groups. Indeed, a small decrease in the RSSH release rate from 1b, equipped with a 4-Me substituent (137±4 min) (Table 1) was observed.
MMTS (100 μL, 50 mM) was added in pH 7.4 phosphate buffer saline (4.85 mL) containing the DTPA (100 μM) as metal chelator. This solution was preincubated for 10 min at 37° C. and then precursor 1a-f or 8 (50 μL, 10 mM) were independently added into the mixture (total volume=5 mL). The resulting solution was incubated at 37° C. At different time points, an aliquot of 300 μL was taken and quenched with 300 μL 0.1% formic acid solution. These samples were stored at 0° C. until HPLC analysis was performed. The sample (20 μL) was injected into a high-performance liquid chromatography (HPLC) equipped with Phenomenex C-18 reverse phase column (250 mm×4.6 mm, 5 μm). HPLC Method: mobile phase A (H2O) and mobile phase B (ACN), flow rate: 1 mL/min, run time: 21 min, the gradient elution method: 10% to 70% B from 0 to 10 min, 70% to 90% B from 10 to 21 min. The elution was monitored by a UV detector at 240 and 275 nm. First-order rate constants were obtained by plotting the precursor decay and phenol by-product formation as a function of time.

Structure (SMILES)	products / RSSH generation in the presence of thiol [1]	4a-f yield (%), phenol by-product [5]	other results
COc1ccc(OC(=O)SSCc2ccccc2)cc1 [Compound 13, SS-benzyl O-(4-methoxyphenyl)carbono(dithioperoxoate), reference compound]	exclusive unsymmetrical disulfide 14 formation		
COC(=O)C(NC(C)=O)C(C)(C)SSC(=O)Oc1ccccc1 (stereo not drawn) [Precursor 1a, Methyl 2-acetamido-3-methyl-3-((phenoxycarbonyl)disulfaneyl)butanoate]	predominantly produces RSSH	92% and 92 ± 2%	formation of by-product 9a (indication of RSSH yield) ([2]; 5 equiv of N-acetylcysteine methyl ester): 53%; COS production with respect to precursor 13 ([3]; NAC 0.25 mM (5 equiv)): approximately 20%; RSSH generation, trapping with HPE-IAM ([4]; 10 equiv HPE-IAM): RSS-HPE-AM 5 formation; RSSH generation, trapping with MMTS ([4]; 10 equiv MMTS): RSS-S-Me 7 formation with no evidence of dialkyl trisulfide 6
COC(=O)C(NC(C)=O)C(C)(C)SSC(=O)Oc1ccc(C)cc1 (stereo not drawn) [Precursor 1b, Methyl 2-acetamido-3-methyl-3-(((p-tolyloxy)carbonyl)disulfaneyl)butanoate]		93 ± 4%	
COC(=O)C(NC(C)=O)C(C)(C)SSC(=O)Oc1ccc(OC)cc1 (stereo not drawn) [Precursor 1c, Methyl 2-acetamido-3-(((4-methoxyphenoxy)carbonyl)disulfaneyl)-3-methylbutanoate]		92 ± 1%	
COC(=O)C(NC(C)=O)C(C)(C)SSC(=O)Oc1ccc(F)cc1 (stereo not drawn) [Precursor 1d, Methyl 2-acetamido-3-(((4-fluorophenoxy)carbonyl)disulfaneyl)-3-methylbutanoate]		96 ± 6%	
COC(=O)C(NC(C)=O)C(C)(C)SSC(=O)Oc1ccc(C(F)(F)F)cc1 (stereo not drawn) [Precursor 1e, Methyl 2-acetamido-3-methyl-3-(((4-(trifluoromethyl)phenoxy)carbonyl)disulfaneyl)butanoate]		97 ± 1%	
COC(=O)C(NC(C)=O)C(C)(C)SSC(=O)Oc1ccc(C#N)cc1 (stereo not drawn) [Precursor 1f, Methyl 2-acetamido-3-(((4-cyanophenoxy)carbonyl)disulfaneyl)-3-methylbutanoate]		97 ± 2%	
COC(=O)C(NC(C)=O)C(C)(C)SSC(=O)OCc1ccccc1 (stereo not drawn) [Precursor 8, Methyl 2-acetamido-3-(((benzyloxy)carbonyl)disulfaneyl)-3-methylbutanoate]	releases RSSH even in the presence of thiol		decomposition rate in the presence of thiol with respect to 1a ([2]; in the presence of thiol): about six times slower; COS generation in the presence of thiol (comparison) ([3]; NAC 0.25 mM): slower COS generation
